In the supplement of paper PMC6078165:
The reference is the same well before dosing, and untreated signal decays as well.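 Fibroblast labels name human fibroblasts: mostly primary ones from tissues such as uterus (C12385, HUF), lung (H6013), bone (Hs27A), adrenal (HADF) and skin (WS1), plus mammary HMF and breast cancer-associated Hs343T. The cancer cells are basal-like or mesenchymal-like triple-negative breast cancer lines. The paper calls a changed response a hit when it shifts by more than 3x the replicate standard deviation. The tissue of the other fibroblasts is not given here.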

System: MDAMB231
Experiment: relative JC-1 red fluorescence (viability) vs pre-drug, coculture with fibroblast (fraction); higher = more viable cancer cells
Description: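 JC-1 labelled TNBC cells cocultured 1:1 (1,500 cells each) with CellTrace Violet stained primary or stromal fibroblasts in 384-well plates in FluoroBrite medium, treated with one of 42 anticancer drugs at 0.1, 1, 10 or 100 uM. JC-1 red fluorescence (mitochondrial integrity in cancer cells only) was read by plate reader every 8 h for 72 h. Values are normalised to each well's pre-drug value. The stock of one drug was tenfold lower, so its dose labels may be too high.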

Nc1ncn([C@@H]2O[C@H](CO)[C@@H](O)[C@H]2O)c(=O)n1 [Azacitidine]
relative JC-1 red fluorescence
Conditions | 8 h | 16 h | 24 h | 32 h | 40 h | 48 h | 56 h | 64 h | 72 h
0.1 µM, coculture fibroblast: C12385 | 0.78 | 0.707 | 0.782 | 0.668 | 0.628 | 0.625 | 0.6 | 0.634 | 0.627
0.1 µM, coculture fibroblast: H6013 | 0.864 | 0.8465 | 0.81 | 0.799 | 0.792 | 0.795 | 0.787 | 0.773 | 0.734
0.1 µM, coculture fibroblast: H6019 | 0.785 | 0.702 | 0.725 | 0.646 | 0.619 | 0.607 | 0.58 | 0.577 | 0.553
0.1 µM, coculture fibroblast: H6076 | 0.811 | 0.749 | 0.737 | 0.728 | 0.7193 | 0.703 | 0.7032 | 0.7033 | 0.717
0.1 µM, coculture fibroblast: H6231 | 0.867 | 0.797 | 0.753 | 0.713 | 0.685 | 0.66 | 0.623 | 0.615 | 0.604
0.1 µM, coculture fibroblast: HADF | 0.838 | 0.809 | 0.7841 | 0.7614 | 0.757 | 0.753 | 0.731 | 0.743 | 0.708
0.1 µM, coculture fibroblast: HCFa | 0.8774 | 0.845 | 0.8282 | 0.7842 | 0.7679 | 0.735 | 0.7098 | 0.678 | 0.6377
0.1 µM, coculture fibroblast: HCPF | 0.904 | 0.824 | 0.763 | 0.73 | 0.6787 | 0.647 | 0.612 | 0.583 | 0.56329
0.1 µM, coculture fibroblast: HHSteC | 0.907 | 0.885 | 0.864 | 0.816 | 0.806 | 0.7854 | 0.743 | 0.73 | 0.707
0.1 µM, coculture fibroblast: HMF | 0.842 | 0.769 | 0.7401 | 0.701 | 0.666 | 0.6393 | 0.614 | 0.599 | 0.597
0.1 µM, coculture fibroblast: HPFa | 0.9104 | 0.884 | 0.835 | 0.7878 | 0.7782 | 0.7453 | 0.6938 | 0.66342 | 0.61476
0.1 µM, coculture fibroblast: HUF | 0.8068 | 0.717 | 0.759 | 0.629 | 0.576 | 0.57 | 0.545 | 0.559 | 0.558
0.1 µM, coculture fibroblast: Hs5 | 0.904 | 0.865 | 0.834 | 0.794 | 0.763 | 0.722 | 0.696 | 0.674 | 0.654
0.1 µM, coculture fibroblast: Hs27A | 0.858 | 0.8325 | 0.8016 | 0.7849 | 0.7496 | 0.7273 | 0.7116 | 0.7013 | 0.6686
0.1 µM, coculture fibroblast: Hs343T | 0.791 | 0.719 | 0.677 | 0.658 | 0.633 | 0.602 | 0.559 | 0.544 | 0.536
0.1 µM, coculture fibroblast: WS1 | 0.745 | 0.672 | 0.731 | 0.636 | 0.603 | 0.597 | 0.572 | 0.582 | 0.576
1 µM, coculture fibroblast: C12385 | 0.75 | 0.722 | 0.615 | 0.6178 | 0.549 | 0.514 | 0.475 | 0.4666 | 0.4452
1 µM, coculture fibroblast: H6013 | 0.885 | 0.837 | 0.83 | 0.815 | 0.78 | 0.752 | 0.7465 | 0.7214 | 0.68165
1 µM, coculture fibroblast: H6019 | 0.75677 | 0.705 | 0.651 | 0.6086 | 0.5473 | 0.516 | 0.475 | 0.451 | 0.413
1 µM, coculture fibroblast: H6076 | 0.842 | 0.7665 | 0.7497 | 0.722 | 0.6692 | 0.6335 | 0.609 | 0.594 | 0.584
1 µM, coculture fibroblast: H6231 | 0.897 | 0.813 | 0.761 | 0.73 | 0.671 | 0.631 | 0.601 | 0.581 | 0.551
1 µM, coculture fibroblast: HADF | 0.857 | 0.789 | 0.756 | 0.721 | 0.683 | 0.639 | 0.628 | 0.616 | 0.573
1 µM, coculture fibroblast: HCFa | 0.8657 | 0.7998 | 0.7673 | 0.729 | 0.679 | 0.623 | 0.609 | 0.58 | 0.532
1 µM, coculture fibroblast: HCPF | 0.891 | 0.782 | 0.719 | 0.694 | 0.631 | 0.594 | 0.553 | 0.526 | 0.502
1 µM, coculture fibroblast: HHSteC | 0.82 | 0.889 | 0.854 | 0.823 | 0.814 | 0.738 | 0.786 | 0.771 | 0.747
1 µM, coculture fibroblast: HMF | 0.903 | 0.811 | 0.73 | 0.691 | 0.633 | 0.596 | 0.549 | 0.528 | 0.509
1 µM, coculture fibroblast: HPFa | 0.9338 | 0.8782 | 0.8174 | 0.7708 | 0.7283 | 0.681 | 0.625 | 0.596 | 0.553
1 µM, coculture fibroblast: HUF | 0.8176 | 0.715 | 0.669 | 0.5679 | 0.4949 | 0.4697 | 0.4173 | 0.39248 | 0.372
1 µM, coculture fibroblast: Hs5 | 0.839 | 0.753 | 0.723 | 0.692 | 0.655 | 0.616 | 0.58598 | 0.5636 | 0.547
1 µM, coculture fibroblast: Hs27A | 0.8717 | 0.83 | 0.781 | 0.742 | 0.6886 | 0.625 | 0.63 | 0.615 | 0.564
1 µM, coculture fibroblast: Hs343T | 0.867 | 0.739 | 0.669 | 0.625 | 0.567 | 0.513 | 0.46 | 0.4348 | 0.4017
1 µM, coculture fibroblast: WS1 | 0.729 | 0.658 | 0.5737 | 0.534 | 0.487 | 0.462 | 0.418 | 0.398 | 0.367
